The list shows a part of the results.
B1: il10ra_site1_normal_mot_HHH_b2_08186_000000021_0001_43_56_H_._HHH_b1_05222_0001_0000100002_0000001_0 (protein)
chain: SSSSSSEEELEELLKRIEEALEEGDPELVRRLLMEAARLAFRLRNPELLQAVWELLELLSSSSSS
B2: il10ra_site1_normal_mot_HHH_b1_05860_000000142_0001_1_19_H_._HHH_b2_01495_0001_0000300030_0000001_0 (protein)
chain: SSSSTEETREAYRLLREAQEALDDGDPEEARELLEEAERLLEEAGNLTVLHNVEYSLQLLDSSSS
B3: il10ra_site1_normal_mot_HHH_b2_01310_000000089_0001_41_55_H_._HHH_b1_07630_af2_0002_0000100002_0000001_0_1_af2pred_0001 (protein)
chain: SSSSDEEELEELIEEIEELIKQGNPEEAIRLLAELVRLALELGDEEVLKIAWRLAKLIKELSSSS
B4: il10ra_site1_sap_16_mot_HHH_b2_02262_af2_000000007_0001_40_53_H_._HHH_b1_07372_0001_0000200031_0000001_1_0001 (protein)
chain: SSSSTQEVAQLMFEALRLLVEGNPEEAEKVLEEAERLAQELNDPELEEYVRILKRFIESQSSSSS
B5: il10ra_site1_normal_mot_HHH_b1_05056_000000217_0001_1_20_H_._HHH_b1_01534_0001_0000100004_0000002_0 (protein)
chain: SSSSSEEVEELLEQARELAEEGDWREATELLQRATQHALRLQDPELLRLVWEVVQEVHELLSSSS
B6: il10ra_site1_normal_mot_513c16ae44941e68898e0f7c259e5a28_0001_1_000000056_0001_35_50_H_._HHH_eva_0741_0001_0000400011_0000001_0 (protein)
chain: SSSSSDEQVRELARAVFRLFEQGALDPRFVEESLEALLELLGDPEVEELLREAKEEAEERSSSSS
B7: il10ra_site1_sap_7_mot_HHH_b2_02315_000000136_0001_19_35_H_._7c653bbcfd290f4ebb70a7ee4eba5725_0001_0001_0000400015_0000001_0_0001 (protein)
chain: SSAEEVWQILVRIYAIAHEQGNEEVREEVRELLALLAEAQANNDEELEEEVKRLAEELAKRVESS
B8: il10ra_site1_sap_21_mot_5d0551e3c4357af680d60aaa850e4cea_0001_1_af2_000000133_0001_18_33_H_._HHH_b2_07683_0001_0000300010_0000002_0_0001_af2pred_dldesign_0_af2p … (protein)
chain: SSSSSPEAKEMAEKTKKYADFLLAAGAPELARRTLENAIHALTQAGDAEGVAELEALLARLSSSS
B9: il10ra_site1_normal_mot_HHH_b2_08144_af2_000000046_0001_38_52_H_._HHH_b2_04130_0001_0000200019_0000001_0 (protein)
chain: SSSSSSTEEAERVWELIRRAQQVSPEEAEELLREAEEIAEEANNELLLIQIEFAARRNSSSSSSS
B10: il10ra_site1_normal_mot_HHH_b1_05056_000000217_0001_1_20_H_._HHH_b2_06881_af2_0001_0000500025_0000001_0 (protein)
chain: SSSSSEEEERVEELLEEAKHIDDPEEAAEVLLEALRLAYELGDEELLREVWEVVKEVVKRLSSSS
B11: il10ra_site1_normal_mot_HHH_b2_05797_000000294_0001_1_19_H_._HHH_b1_02457_0001_0000300030_0000002_0 (protein)
chain: SSSSDEEVRELIEELEELREHVSPELEEYIENTLIFAKALLESGDPEAAERLLRAALQAIRSSSS
B12: il10ra_site1_normal_mot_HHH_b1_06994_000000193_0001_40_55_H_._HHH_b2_02338_af2_0001_0000100002_0000001_0 (protein)
chain: SSSSDQREELLRAAVRLIEQALEFGDERSARFLIFSAELLARELGDEETLEKIEELEKEVNSSSS
B13: il10ra_site1_sap_17_mot_8756ee2cf497b5429c717dfc0c0bcfd6_0001_000000186_0001_1_13_H_._HHH_b1_05891_af2_0001_0000100001_0000001_0_0001_af2pred_0001 (protein)
chain: SSSSDDEKFVRLTIRFARFLLEQGDREAARFFLEVALEIAERINNPELKEEIEELLEEVGSSSSS
B14: il10ra_site1_normal_mot_HHH_b1_03333_000000091_0001_1_17_H_._HHH_b1_04956_af2_0001_0000400014_0000001_0 (protein)
chain: SSSSDRYEEAKRLIERIIRLWEEGDDEEARRLLEELEELAKEAGNPSLEFAVRILEEIIDSSSSS
B15: il10ra_site1_normal_mot_HHH_b1_07256_000000044_0001_1_17_H_._HHH_b2_06732_af2_0001_0000200009_0000001_0 (protein)
chain: SSSSDEEHERALELIRRIARLAFRGDEEEARRLLEELEELVEKLGDPRLEWALRVLELALSSSSS
B16: il10ra_site1_normal_mot_HHH_b2_00984_000000042_0001_1_20_H_._HHH_b2_01628_0001_0000200011_0000001_0 (protein)
chain: SSSSSEEEEVEERVEELLERAKQIEDEEEVAELLLEATQLAIHANDRELLQEVWKVIKELSSSSS
B17: il10ra_site1_normal_mot_HHH_b2_00277_af2_000000172_0001_1_17_H_._HHH_b2_03649_0001_0000500026_0000001_0_af2pred_0001 (protein)
chain: SSSSSDEEFREEVERLLEEAEKIEDPREASYVATRAFALALRGNDPELERLVKEVAQKLASSSSS
B18: il10ra_site1_normal_mot_HHH_b2_07006_000000108_0001_1_19_H_._HHH_b2_03643_0001_0000100004_0000001_0 (protein)
chain: SSSSDEWYELVRRLIEEIVRLIREGNPEEAKRLIEELERLAEERNDFALRFVVRLLEQALKSSSS
B19: il10ra_site1_normal_mot_8756ee2cf497b5429c717dfc0c0bcfd6_0001_000000186_0001_1_13_H_._HHH_b1_03452_af2_0001_0000100005_0000001_0_af2pred_0001 (protein)
chain: SSSSDTQEVLRLLREAAELDHNGNPEEAEEVVERARELAEELNNLVLRAVAEFLEKIIRSSSSSS
B20: il10ra_site1_sap_16_mot_HHH_b1_08282_000000046_0001_43_57_H_._HHH_b1_01753_0001_0000400015_0000001_0_0001 (protein)
chain: DEELVELAQLLLEGDPHATMKLIHLYARIDQGDPEAERKLEEAIELAEELGDEDVVIILEALLEQ
B21: il10ra_site1_normal_mot_HHH_b2_06199_000000213_0001_1_17_H_._HHH_b1_05925_0001_0000300042_0000001_0_af2pred_0001 (protein)
chain: SSSSDEELLRLSLRFAKWLEEQGDPEAARFILEAALEIARDNGDEELVEEIEELLEKLRGSSSSS
B22: il10ra_site1_normal_mot_8756ee2cf497b5429c717dfc0c0bcfd6_0001_000000186_0001_1_13_H_._HHH_b2_06285_af2_0001_0000300019_0000001_0 (protein)
chain: SSSSSLEEEVYRLLREVSELDQEGDEEEAEKLLEEAEELAKEAGNDVFRVQVEYLLRLLKSSSSS
B23: il10ra_site1_normal_mot_HHH_b2_01649_af2_000000191_0001_40_56_H_._HHH_b1_02852_0001_0000100001_0000002_0 (protein)
chain: SSSSSLSEVALRFHARLLEDATKLGNEEEVELIVRHAKEALRALGDPEAVERLEEHFRELLSSSS
B24: il10ra_site1_normal_mot_HHH_b2_00134_af2_000000004_0001_38_52_H_._HHH_b1_06808_0001_0000300021_0000002_0 (protein)
chain: SSSSSSEIEEFVEELVRLFNLSEEQEKLLRKSARRQLEQGASEEDVEEALEFQARALHESSSSSS

Each binder was assayed against il10ra, Q13651 (assay: yeast display titration).

Apparent Kd, inactive:
B1 no binding seen
B2 no binding seen
B3 no binding seen
B4 no binding seen
B5 no binding seen
B6 no binding seen
B7 no binding seen
B8 no binding seen
B9 no binding seen
B10 no binding seen
B11 no binding seen
B12 no binding seen
B13 no binding seen
B14 no binding seen
B15 no binding seen
B16 no binding seen
B17 no binding seen
B18 no binding seen
B19 no binding seen
B20 no binding seen
B21 no binding seen
B22 no binding seen
B23 no binding seen
B24 no binding seen

As a working copy, part of the list above:
Apparent Kd, inactive:
B4 no binding seen
B5 no binding seen

— article PMC10163288
